In publication PMC7819943, “Rice protein-binding microarrays: a tool to detect cis-acting elements near promoter regions in rice”:
The list shows a part of the results.

The sequences below were run against T1, OsSMF1 (Oryza sativa, UniProt Q6ZLB0 1-436) (assay: protein-binding microarray (RPBM); PBS, 2% BSA, 51.3 ng/ul salmon testes DNA, 50 uM zinc acetate, 200 nM TF, 25 C, 1 h; high values mean tight binding). Details: protein: recombinant; tags: N-terminal polyhistidine and DsRed monomer fusion (pET32a); chain copies: 2; label: CyDye5-dUTP incorporated in the synthesized complementary strand; 3' TTTTT single-stranded linker to array surface; dsDNA, one strand shown.
T1 sequence: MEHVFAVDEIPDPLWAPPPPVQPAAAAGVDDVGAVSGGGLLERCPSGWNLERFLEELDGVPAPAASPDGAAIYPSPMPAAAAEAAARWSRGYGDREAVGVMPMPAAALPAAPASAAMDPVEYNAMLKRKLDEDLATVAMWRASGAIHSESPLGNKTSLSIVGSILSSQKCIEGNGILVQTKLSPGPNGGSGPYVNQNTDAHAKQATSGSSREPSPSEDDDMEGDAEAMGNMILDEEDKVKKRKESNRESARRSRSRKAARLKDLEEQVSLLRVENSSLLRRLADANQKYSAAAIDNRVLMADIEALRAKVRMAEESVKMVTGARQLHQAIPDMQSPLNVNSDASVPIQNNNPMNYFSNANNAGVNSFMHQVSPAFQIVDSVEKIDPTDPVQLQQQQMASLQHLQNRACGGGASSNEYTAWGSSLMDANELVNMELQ
Procedure, shortened: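 Binding signal is defined as the fluorescence intensity of each feature in arbitrary units, read on an Axon 4000B scanner. Transcription factors with N-terminal polyhistidine and DsRed fusions came from E. coli BL21-CodonPlus and were purified on Ni–NTA. They were incubated at 200 nM for 1 h at 25 °C on a custom Agilent array that had been made double-stranded with Cy5-dUTP, with 50 µM zinc acetate present, and the array was washed.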

Row | Sequence | binding signal
1 | CCTCTCTCGCCGCAGATCCCAACGCCGCACACACACGCACCGGAGTCACCTAGTGCAG | 3150 fluorescence intensity (a.u.)
2 | TGACTCTCACGCACTAATTACTACTCCACTTACATGGTTTCGGAGTCACCTAGTGCAG | 3580 fluorescence intensity (a.u.)
3 | TTATCAGAATTGCAAAATTGTGCACCGAGACAGAGAGGCTCGGAGTCACCTAGTGCAG | 29000 fluorescence intensity (a.u.)
4 | GACGTCCTCCGTCGGATGAGTCGGACTGTCGGACGGTGGACGGAGTCACCTAGTGCAG | 3290 fluorescence intensity (a.u.)
5 | GTATATATATGTCTTGTGTGTGCATGTGGATGAGTACGCACGGAGTCACCTAGTGCAG | 3740 fluorescence intensity (a.u.)
6 | TATGTTTACTTTTATTATAGTATTTTATAAGATAAATCTACGGAGTCACCTAGTGCAG | 34400 fluorescence intensity (a.u.)
7 | GGCAGGCAGGGGAACGCAAGGCATATCGTCGTCAATTCGTCGGAGTCACCTAGTGCAG | 3240 fluorescence intensity (a.u.)
8 | AGGTTGACACCGTGGCGACGAGGAGGTCCGGCTCATCCTTCGGAGTCACCTAGTGCAG | 4390 fluorescence intensity (a.u.)
9 | ATTAAATAAGCTGTCATTTAGAATGAAAGATGATGTGGCACGGAGTCACCTAGTGCAG | 21700 fluorescence intensity (a.u.)
10 | AGAAAAGGGGAAAGAAGGATAGGAGGCTGACGTGGATAACCGGAGTCACCTAGTGCAG | 11500 fluorescence intensity (a.u.)
11 | CGACCGCGCCACACGCATCCCCACGCCACCCTAACCACACCGGAGTCACCTAGTGCAG | 3280 fluorescence intensity (a.u.)
12 | CTGGGACCCACATCCGCGGATGTGGGCCCACGTAAGCAGTCGGAGTCACCTAGTGCAG | 9600 fluorescence intensity (a.u.)
13 | GCATTATATTAGTAGGTCGTGTATTATATTAGTAGGTACTCGGAGTCACCTAGTGCAG | 4260 fluorescence intensity (a.u.)
14 | TGGGGATGGCTGGTGAAGTGGCAGATTAGGGCTGAAAGCTCGGAGTCACCTAGTGCAG | 3850 fluorescence intensity (a.u.)
15 | TCTTCCTCAAAGTAAAATAGAAGCTAGGGCTAAGAGCCCACGGAGTCACCTAGTGCAG | 65100 fluorescence intensity (a.u.)
16 | CGTGGTGGGCCCCACCCCGTCAGTGACACCGGGACGGGGTCGGAGTCACCTAGTGCAG | 3210 fluorescence intensity (a.u.)
17 | AGGAAGACAAATCACGAACTCTTAAGGCATCTGTAGTGTTCGGAGTCACCTAGTGCAG | 3240 fluorescence intensity (a.u.)
18 | TCTTACTACAAGTATGATGGCACGTCAAGTTTTACAAAAGCGGAGTCACCTAGTGCAG | 37800 fluorescence intensity (a.u.)
19 | ATGGGATGTCTGTTCGGTCGGGACTCATCAGTCGGGACGGCGGAGTCACCTAGTGCAG | 3230 fluorescence intensity (a.u.)
20 | TAGCTTTGGTATATCAGTCTGATAGAGGCGAGTCATCCATCGGAGTCACCTAGTGCAG | 3950 fluorescence intensity (a.u.)
21 | AAACTTGAATCAGTTAGCTAACTGCATGACATCCATGTCGCGGAGTCACCTAGTGCAG | 3220 fluorescence intensity (a.u.)

Row | Sequence | binding signal
22 | ACTGCCCATTGTCCATTGATGACACGGTCACTCACTCCCGCGGAGTCACCTAGTGCAG | 3910 fluorescence intensity (a.u.)
23 | CGCAGGAGACGATAGCACAAAAGGCAACAGCTACGTGGCGCGGAGTCACCTAGTGCAG | 5290 fluorescence intensity (a.u.)
24 | CCCCACCATAGTCCACGTCACCTGCTCAGCGCTCTCCCATCGGAGTCACCTAGTGCAG | 27900 fluorescence intensity (a.u.)
25 | GAGAGGGGTGCGCAGTGTGTTGTGGTGGTGCACATGACGGCGGAGTCACCTAGTGCAG | 3510 fluorescence intensity (a.u.)
26 | GATAGTAAGCTTGGAAGTAGAGTAGTTGTAACTACTCGTACGGAGTCACCTAGTGCAG | 30200 fluorescence intensity (a.u.)
27 | AAAGAGATTTTGGGTGAATGTGACACATCATCTATTCATTCGGAGTCACCTAGTGCAG | 5740 fluorescence intensity (a.u.)
28 | CTACGATTTGCCACTGACTTTGTCACGTTCTACAACATGCCGGAGTCACCTAGTGCAG | 4360 fluorescence intensity (a.u.)
29 | CGGGCCGGGCCGCCACGTGAGGCCCATATCCGGACAGAGACGGAGTCACCTAGTGCAG | 3400 fluorescence intensity (a.u.)
30 | TTGCTACACTCATTCGGTCATTCACTATACTTTGTGTACGCGGAGTCACCTAGTGCAG | 5290 fluorescence intensity (a.u.)
31 | AATCAAGTTTGCCTCCCTGCGAATTTGCCACGTGTCTCCTCGGAGTCACCTAGTGCAG | 30600 fluorescence intensity (a.u.)
32 | CTCAAGCAACCACCGTTCATGGATATGACGACGTCGCTGGCGGAGTCACCTAGTGCAG | 3440 fluorescence intensity (a.u.)
33 | TCACCTCCATTAGCTATTTAGCTGGCCAGTCATGATCCATCGGAGTCACCTAGTGCAG | 3960 fluorescence intensity (a.u.)
34 | ACGTAGGGTATAAGTATAATAACGAGTACAACGTCACGTGCGGAGTCACCTAGTGCAG | 4360 fluorescence intensity (a.u.)
35 | GCACAGCGCAGTCACTCACACTCGCGGTCTCCCTCCCTCCCGGAGTCACCTAGTGCAG | 3490 fluorescence intensity (a.u.)
36 | ACTTGTCACTTGGTTCACACTAAGAGCACTTGACATATCTCGGAGTCACCTAGTGCAG | 17900 fluorescence intensity (a.u.)
37 | TGTCCTATCCTGCCTGCCCTTGCACCTTCCTCTCTGCAAACGGAGTCACCTAGTGCAG | 3580 fluorescence intensity (a.u.)
38 | GTCCCTACTGTTTACTACCACTCTTTCTGATCTATGTAGACGGAGTCACCTAGTGCAG | 3770 fluorescence intensity (a.u.)
39 | GCGCTGGGTCGCCGTCGCGCCGTCACTCCCCTACGACTGACGGAGTCACCTAGTGCAG | 3190 fluorescence intensity (a.u.)
40 | CACACCAGGTGTTCGACACTCGGGCGAGCGGCGCGTCACGCGGAGTCACCTAGTGCAG | 3480 fluorescence intensity (a.u.)
41 | GCGAAGAGCCGTTCACGTCGCGGATCCGCGTGTCTCGAGCCGGAGTCACCTAGTGCAG | 3620 fluorescence intensity (a.u.)
42 | CTCTGTGGGGCTTTGGACGGCCGGCGGTGGGGACGAGGTCCGGAGTCACCTAGTGCAG | 3340 fluorescence intensity (a.u.)

Random excerpt: 3 entries already listed
Row | Sequence | binding signal
35 | GCACAGCGCAGTCACTCACACTCGCGGTCTCCCTCCCTCCCGGAGTCACCTAGTGCAG | 3490 fluorescence intensity (a.u.)
33 | TCACCTCCATTAGCTATTTAGCTGGCCAGTCATGATCCATCGGAGTCACCTAGTGCAG | 3960 fluorescence intensity (a.u.)
22 | ACTGCCCATTGTCCATTGATGACACGGTCACTCACTCCCGCGGAGTCACCTAGTGCAG | 3910 fluorescence intensity (a.u.)
